Assay results reported in US20240026032A1 (Alexion, published 2024).
Results are given in words; binding and its absence hold for the method and conditions named. Some results given as binding are weak or reduced against the parent protein; the word gives no strength.

T1: Human DLAT recombinant protein (ProSpec, Catalog # ENZ-082) (human) (UniProt P10515)
T1 sequence (looked up): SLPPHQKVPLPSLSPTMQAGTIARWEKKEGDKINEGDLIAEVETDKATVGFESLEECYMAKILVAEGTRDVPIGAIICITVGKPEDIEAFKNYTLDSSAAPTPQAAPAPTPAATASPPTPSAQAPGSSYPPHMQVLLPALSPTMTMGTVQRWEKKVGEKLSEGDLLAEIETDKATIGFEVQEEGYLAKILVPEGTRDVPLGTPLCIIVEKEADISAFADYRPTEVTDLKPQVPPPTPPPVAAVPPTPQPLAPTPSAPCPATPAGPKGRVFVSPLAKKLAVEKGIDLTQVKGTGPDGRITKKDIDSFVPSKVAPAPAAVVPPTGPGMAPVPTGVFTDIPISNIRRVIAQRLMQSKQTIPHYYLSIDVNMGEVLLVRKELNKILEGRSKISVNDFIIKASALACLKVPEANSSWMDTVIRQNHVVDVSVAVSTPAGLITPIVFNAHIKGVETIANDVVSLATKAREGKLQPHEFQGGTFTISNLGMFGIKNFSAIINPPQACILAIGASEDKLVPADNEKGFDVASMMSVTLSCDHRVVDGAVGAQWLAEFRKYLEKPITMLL


Tests used:
[1] = molecular target: T1, Human DLAT recombinant protein (ProSpec, Catalog # ENZ-082) (human); assay: BIAcore (SPR) kinetics
[2] = molecular target: T1, Human DLAT recombinant protein (ProSpec, Catalog # ENZ-082) (human); assay: BIAcore, AntiMouse_TPP1003_DLAT (Prospec)
[3] = molecular target: T1, Human DLAT recombinant protein (ProSpec, Catalog # ENZ-082) (human); assay: BLI, antibody on anti-mouse IgG1 Fc tips, DLAT 200 nM to 2.5 nM
[4] = molecular target: T1, Human DLAT recombinant protein (ProSpec, Catalog # ENZ-082) (human); assay: BLI (Octet Red), TPP-1003 loaded on anti-mouse IgG1 Fc tips, DLAT in PBS as analyte
[5] = molecular target: T1, Human DLAT recombinant protein (ProSpec, Catalog # ENZ-082) (human); assay: BIAcore, AntiMouse_TPP1005_DLAT (Prospec)
[6] = molecular target: T1, Human DLAT recombinant protein (ProSpec, Catalog # ENZ-082) (human); assay: BLI (Octet Red), TPP-1005 loaded on anti-mouse IgG1 Fc tips, DLAT in PBS as analyte

| binding [1] | binding [2] | binding [3] | binding [4] | binding [5] | binding [6] | Binder |
| --- | --- | --- | --- | --- | --- | --- |
| binds | binds | binds | binds |  |  | TPP-1003 (mIgG1 PD2 Ab) (antibody, V domains shown, also called mouse IgG1 chimera anti-DLAT antibody PD2) VH: EVQLVESGGGLVKPGGSLRLSCAASGFTFGSYSMTWVRQAPGKGLEWVSFISTVSTYIYYPDSVKGRFTISRDNAKNSLYLQMNSLRAEDTAVYYCARVSGRGSAARDGEKGTYYYYMDVWGKGTTVTVSS VL: SSELTQDPAVSVALGQTVTITCQGDSLRSYYASWYQQKPGQAPVLVIFGKNNRPSGIPDRFSGSRSGNTASLTITGAQAEDEADYFCDSRDSSANHWVFGGGTKLTVLQ |
| binds |  | binds |  | binds | binds | TPP-1005 (mIgG1 DWZ Ab) (antibody, V domains shown, also called murine IgG1 DWZ) VH: EVQLLESGGDVVQPGGSLRLSCVASGFTLTNYVTAWVRRRPGKGLEWISGMTHGAVATYYSDSVRGRFSSSRDTSRSTLYLQMNDLTVEDTAIYYCAKSLHRSGTSLSYWGQGTLVTVSS VL: QSVLTQPPSASGTPGQNINISCSGTTSNIGGSNVDWYQHVPGTAPKLFIHSNNQRPSGVPARFSASKSGTSASLAISGLQSEDEADYYCATWDVRLLAYVFGSATEVTVLR |
